Data from PubChem BioAssay AID485314 (National Center for Advancing Translational Sciences (NCATS), 2010).
Out of some 340,000 compounds screened, about 4,500 (1.3%) were called active. The inconclusive results got no clear call from the source; some entries with a clear call stand among them for comparison. Calls follow the shape of the dose curve; as a rule, active = well fitted inhibition curve with a large enough effect; inconclusive = small, poorly fitted or top-dose-only effect, or another doubt; inactive = no such curve, though single readings can be large or run the other way. Where the call is inconclusive, the potency comes from a doubtful curve fit.

target: DNA polymerase beta (Homo sapiens) (UniProt P06746); assay: qHTS Assay for Inhibitors of DNA Polymerase Beta; conditions: Pol beta primer extension/strand displacement, fluorescence kinetic; activity change, negative = inhibition: at 114 µM (top of the series)
Method in brief: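 Values derive from four-parameter Hill fits of normalized kinetic data: reads at 0 and 10 min following addition of 50 nM substrate to 10 nM Pol beta preincubated 15 min with compound.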
% is scaled to controls: 0 for no effect and ±100 for the full control effect; potency is read from the fitted curve at half-maximal effect.

Activity change, negative = inhibition, inactive:
O/N=C1\CCC\C1=C/c1ccco1 -16.9%, Cc1cccc(C)c1Nc1c(-c2ccccc2Cl)nc2cnccn12 10.7%, CC(=O)c1ccc(N2CCN(C(=O)C3CCN(S(=O)(=O)c4ccc(Br)s4)CC3)CC2)cc1 9.96%, COCCCNC(=S)NNC(=O)c1ccccn1 4.37%, Cc1ccc(CCNC(=O)c2ccc3c(=O)n(-c4ccc(C)cc4)c(=O)[nH]c3c2)cc1 0.94%, CCC(C)[C@H](NC(=O)N1CC(=O)Nc2ccccc21)C(=O)N1CCC[C@H]1C(=O)O (some centres not stated) 2.66%, O=C(Cc1ccc(F)cc1)NC1CC(=O)N(c2ccc3c(c2)OCCO3)C1 (configuration not stated) -2.34%, Cc1ccccc1Cn1cc(CCC(=O)NC(C)c2ccccc2)c2ccccc21 (configuration not stated) -19.9%, Cc1cc(=O)cc(C)n1-c1ccc(Br)cc1 -12.9%

Activity change, negative = inhibition, inconclusive:
COc1cccc(CNC(=O)CSc2nnc3c(n2)[nH]c2ccc(F)cc23)c1 -30.3% [inhibitor], NS(=O)(=O)c1cccc(NC(=O)COC(=O)c2cc(Cl)ccc2[N+](=O)[O-])c1 -39.2% [inhibitor], CCC(=O)Nc1ccc(-c2ccc(N3CCC(C)CC3)nn2)cc1 -31.9% [inhibitor]

Potency, inconclusive:
Cc1cc(OCc2ccc(C(=O)Nc3ccc(C(=O)O)cc3)o2)ccc1Cl 3.16 µM [inhibitor, full curve], COc1ccc2nc(NC(=O)C3CCN(S(=O)(=O)c4cccnc4)CC3)sc2c1 89.1 µM [inhibitor, single point], COc1ccc(CN2CCNC(=O)C2CC(=O)N(C)Cc2nccn2C)cc1OC (configuration not stated) 89.1 µM [inhibitor, single point], O=C(COc1ccc(F)cc1)Nc1ccc2nc(SCC(=O)N3CCCC3)sc2c1 35.5 µM [inhibitor, single point], CCCCNC(=O)c1ccc(Cn2c(=S)[nH]c3c([nH]c4ccc(OC)cc43)c2=O)cc1 25.1 µM [inhibitor, full curve, poor fit], C=CCSc1nnc(NC(=O)CSc2nc3ccccc3[nH]2)s1 35.5 µM [inhibitor, partial curve], COC(=O)c1sc(N)c(C(=O)OC)c1COC(=O)CNS(=O)(=O)c1ccc(C)c(C)c1 15.8 µM [inhibitor, full curve, poor fit], O=C(Nc1ccccc1)c1ccc2nsnc2c1 2.82 µM [inhibitor, full curve, poor fit], CNc1ccccc(-c2ccc3ccccc3n2)c1=O 79.4 µM [inhibitor, partial curve], O=C(c1ccc2c(c1)N(Cc1ccc(Cl)cc1)C(=O)c1ccccc1S2(=O)=O)N1CCCCCC1 0.224 µM [inhibitor, full curve, poor fit], Oc1cccc(-c2nc3ccccc3s2)c1 89.1 µM [inhibitor, single point], COc1cc(NC(=O)c2c3c(nc4ccccc24)CCC3)cc(OC)c1 112 µM [inhibitor, partial curve, poor fit], N#Cc1c(-c2ccccc2Cl)noc1/C=C/Nc1ccc(C(=O)O)cc1 50.1 µM [inhibitor, partial curve], CCCNS(=O)(=O)c1ccc(CCC(=O)Nc2ccc3c(c2)OCCO3)cc1 100 µM [inhibitor, single point], Cc1cc2oc(C(=O)Nc3sc4c(c3C(=O)NCc3ccco3)CCC4)cc(=O)c2cc1C 12.6 µM [inhibitor, full curve, poor fit], Cc1ccc(C(=O)Nc2ccc3nc(SCC(=O)N4CCc5ccccc54)sc3c2)cc1 89.1 µM [inhibitor, single point], NS(=O)(=O)c1ccc(Nc2nc(-c3ccc(O)cc3O)cs2)cc1 35.5 µM [inhibitor, partial curve, poor fit], CCC(=O)Nc1nc(C)c(C(=O)Nc2cccc(Cl)c2)s1 2 µM [inhibitor, full curve, poor fit], COCCCNC(=O)Cn1c(=O)n(Cc2ccc(C(=O)NCc3ccc(C)cc3)cc2)c(=O)c2ccccc21 28.2 µM [inhibitor, full curve], O=C(COc1ccc2c3c(c(=O)oc2c1)CCC3)NC1CCCCC1 22.4 µM [inhibitor, full curve], COc1ccc2c(c1)S(=O)(=O)c1ccccc1N2 63.1 µM [inhibitor, single point], FC(F)(F)c1cccc(N2CCN(Cc3cccnc3)CC2)c1 100 µM [inhibitor, single point], CCC(Sc1nc2ccccc2c2nc(CCc3c(C)n[nH]c3C)nn12)C(=O)Nc1ccc(F)cc1 (configuration not stated) 28.2 µM [inhibitor, partial curve], Cc1ccc(S(=O)(=O)N(CC(=O)Nc2ccccc2C(=O)O)c2cccc(Cl)c2C)cc1 79.4 µM [inhibitor, single point], CCC(C)c1ccc(OCC(=O)Nc2cccc(-c3nc4ncccc4o3)c2)cc1 (configuration not stated) 10 µM [inhibitor, partial curve], O=C(Cc1ccccc1[N+](=O)[O-])NCCC1=CCCCC1 100 µM [inhibitor, single point], CC1CCCN(C(=O)NC(=O)c2ccc(Cl)cc2)C1 (configuration not stated) 39.8 µM [inhibitor, single point], O=C(Nc1ccc(N2CCCC2)c(S(=O)(=O)Nc2cccc(C(F)(F)F)c2)c1)c1cccs1 50.1 µM [inhibitor, partial curve], O=C1c2ccccc2C(=O)N1c1cccc2ccccc12 1.58 µM [inhibitor, full curve, poor fit], CC(NC(=O)C(=O)NCCCn1ccnc1)c1ccccc1 (configuration not stated) 0.631 µM [inhibitor, partial curve, poor fit]
